Laboratory results from US20110251090A1.
These are yes or no findings as the source states them, for the method shown. Binding seen in cells or lysates may run through a third protein. Some binding calls cover weakened binding; strength is not graded here. For part of these data: Sequences can lack the tags named with a protein.

Chains of the proteins cited; added tags and fusions are not shown.
UniProt Q9H4L4: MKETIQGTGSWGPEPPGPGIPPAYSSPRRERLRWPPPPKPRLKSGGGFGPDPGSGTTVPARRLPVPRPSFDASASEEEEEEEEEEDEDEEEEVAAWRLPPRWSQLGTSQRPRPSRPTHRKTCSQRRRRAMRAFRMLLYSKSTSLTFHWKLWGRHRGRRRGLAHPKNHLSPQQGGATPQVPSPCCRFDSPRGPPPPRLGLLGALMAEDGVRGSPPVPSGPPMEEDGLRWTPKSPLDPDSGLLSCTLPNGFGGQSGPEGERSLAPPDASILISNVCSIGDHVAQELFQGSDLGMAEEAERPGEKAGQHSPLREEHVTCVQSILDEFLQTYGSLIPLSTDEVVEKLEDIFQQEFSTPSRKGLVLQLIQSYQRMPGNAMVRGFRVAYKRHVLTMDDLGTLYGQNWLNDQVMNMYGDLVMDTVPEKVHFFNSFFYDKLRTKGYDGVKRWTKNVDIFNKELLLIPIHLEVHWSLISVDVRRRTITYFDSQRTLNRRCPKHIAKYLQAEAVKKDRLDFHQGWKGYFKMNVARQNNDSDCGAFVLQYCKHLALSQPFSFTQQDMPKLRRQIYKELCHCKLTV
UniProt Q8IZL8: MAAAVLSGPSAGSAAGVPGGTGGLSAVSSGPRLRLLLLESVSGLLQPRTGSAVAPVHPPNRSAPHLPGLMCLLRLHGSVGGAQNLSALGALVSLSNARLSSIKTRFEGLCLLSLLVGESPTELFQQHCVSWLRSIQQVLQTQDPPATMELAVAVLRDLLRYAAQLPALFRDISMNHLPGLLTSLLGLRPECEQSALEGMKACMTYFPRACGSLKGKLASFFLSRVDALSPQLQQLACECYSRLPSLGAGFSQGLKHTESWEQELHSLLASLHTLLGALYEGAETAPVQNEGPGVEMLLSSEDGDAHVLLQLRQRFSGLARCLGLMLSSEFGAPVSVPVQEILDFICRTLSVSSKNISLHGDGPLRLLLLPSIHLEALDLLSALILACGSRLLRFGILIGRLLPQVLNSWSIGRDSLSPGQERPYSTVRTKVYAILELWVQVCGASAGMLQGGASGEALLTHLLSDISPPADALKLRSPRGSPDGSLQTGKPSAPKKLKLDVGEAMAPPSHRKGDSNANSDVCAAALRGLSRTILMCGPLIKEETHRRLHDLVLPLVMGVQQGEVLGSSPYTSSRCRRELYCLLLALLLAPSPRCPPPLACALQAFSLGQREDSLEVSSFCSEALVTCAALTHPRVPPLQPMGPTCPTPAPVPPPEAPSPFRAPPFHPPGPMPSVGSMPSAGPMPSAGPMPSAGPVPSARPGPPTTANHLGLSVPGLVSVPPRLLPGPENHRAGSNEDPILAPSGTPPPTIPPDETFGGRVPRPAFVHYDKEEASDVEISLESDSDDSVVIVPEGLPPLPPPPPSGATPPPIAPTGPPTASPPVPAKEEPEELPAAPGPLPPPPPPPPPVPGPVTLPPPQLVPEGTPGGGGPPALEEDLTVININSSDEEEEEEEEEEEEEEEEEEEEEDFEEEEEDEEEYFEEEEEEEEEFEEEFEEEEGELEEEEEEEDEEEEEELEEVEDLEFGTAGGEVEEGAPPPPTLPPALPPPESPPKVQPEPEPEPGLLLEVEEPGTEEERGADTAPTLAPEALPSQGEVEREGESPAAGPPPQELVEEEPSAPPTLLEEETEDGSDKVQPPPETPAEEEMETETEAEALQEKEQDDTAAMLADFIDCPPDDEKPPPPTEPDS

Experiments:
SENP3-Flag (human) [1] = target: SENP3-Flag (human) (UniProt Q9H4L4); test: co-immunoprecipitation from co-transfected COS-7 cells (FIG. 8B)
LAS1L-Flag (human) [2] = target: T1, LAS1L-Flag (human) (UniProt Q9Y4W2); test: co-immunoprecipitation with TTLL4 over-expression (FIG. 9A upper)
T1 sequence: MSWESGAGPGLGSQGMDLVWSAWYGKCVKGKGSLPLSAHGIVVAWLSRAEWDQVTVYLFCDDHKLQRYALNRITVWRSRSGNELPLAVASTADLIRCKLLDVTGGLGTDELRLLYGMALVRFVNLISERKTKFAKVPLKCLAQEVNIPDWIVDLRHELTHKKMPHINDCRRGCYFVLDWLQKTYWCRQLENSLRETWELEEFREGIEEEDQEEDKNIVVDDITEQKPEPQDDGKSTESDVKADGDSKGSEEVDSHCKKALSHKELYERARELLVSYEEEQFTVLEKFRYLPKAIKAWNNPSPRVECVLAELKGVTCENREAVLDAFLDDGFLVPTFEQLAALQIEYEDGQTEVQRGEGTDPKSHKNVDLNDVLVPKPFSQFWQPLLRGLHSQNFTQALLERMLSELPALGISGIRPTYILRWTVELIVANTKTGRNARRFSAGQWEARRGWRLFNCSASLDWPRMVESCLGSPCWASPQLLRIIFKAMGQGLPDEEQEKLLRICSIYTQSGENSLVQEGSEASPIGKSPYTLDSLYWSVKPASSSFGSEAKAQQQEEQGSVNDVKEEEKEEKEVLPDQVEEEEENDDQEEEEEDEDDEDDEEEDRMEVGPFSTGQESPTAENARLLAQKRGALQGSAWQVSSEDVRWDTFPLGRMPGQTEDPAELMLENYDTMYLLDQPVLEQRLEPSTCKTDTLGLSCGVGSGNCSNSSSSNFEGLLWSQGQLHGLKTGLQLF

LAS1L-Flag (human) [3] = target: T1, LAS1L-Flag (human); test: co-immunoprecipitation with anti-HA antibody (PELP1-HA) from cells co-transfected with wild-type or enzyme-dead (E906A) TTLL4 (FIG. 9A upper)
SENP3-Flag (human) [4] = target: SENP3-Flag (human) (UniProt Q9H4L4); test: co-immunoprecipitation from COS-7 cells co-transfected with PELP1-HA and SENP3-Flag vectors (FIG. 8B)
LAS1L-Flag (human) [5] = target: T1, LAS1L-Flag (human); test: co-immunoprecipitation from co-transfected COS-7 cells, western blot with anti-HA antibody (FIG. 8A left)
SENP3-Flag (human) [6] = target: SENP3-Flag (human) (UniProt Q9H4L4); test: co-immunoprecipitation with TTLL4 over-expression (FIG. 9B upper)
SENP3-Flag (human) [7] = target: SENP3-Flag (human) (UniProt Q9H4L4); test: co-immunoprecipitation with anti-HA antibody (PELP1-HA) from cells co-transfected with wild-type or enzyme-dead (E906A) TTLL4 (FIG. 9B upper)
LAS1L-Flag (human) [8] = target: T1, LAS1L-Flag (human); test: co-immunoprecipitation (FIG. 8)
SENP3-Flag (human) [9] = target: SENP3-Flag (human) (UniProt Q9H4L4); test: co-immunoprecipitation (FIG. 8)

Measured: binding

PELP1-HA (from UniProt Q8IZL8 1-1130)
binds: all assays above
